This is an account of results in PMC11558673 (Biomacromolecules, 2024).

Some peptides are written in HELM: one residue between dots, names in brackets for other building blocks, links after the first $.

A short description of the data set: general procedure: peptide synthesis; Fmoc-NH-SAL-MBHA resin (100–200 mesh); HBTU/OxymaPure (solid phase); COMU/DIPEA (solution branching). To be noted: coupling step.
“PEPTIDE1{[gGlu].[gGlu].[gGlu].[gGlu].F.P.G.V.G.[am]}|PEPTIDE2{F.P.G.V.G.[am]}|PEPTIDE3{F.P.G.V.G.[am]}|PEPTIDE4{F.P.G.V.G.[am]}|PEPTIDE5{F.P.G.V.G.[am]}$PEPTIDE1,PEPTIDE2,1:R3-1:R1|PEPTIDE1,PEPTIDE3,2:R3-1:R1|PEPTIDE1,PEPTIDE4,3:R3-1:R1|PEPTIDE1,PEPTIDE5,4:R3-1:R1$$$V2.0” registered a step yield of 15%.

“PEPTIDE1{[gGlu].[gGlu].[gGlu].[gGlu].[gGlu].F.P.G.V.G.[am]}|PEPTIDE2{F.P.G.V.G.[am]}|PEPTIDE3{F.P.G.V.G.[am]}|PEPTIDE4{F.P.G.V.G.[am]}|PEPTIDE5{F.P.G.V.G.[am]}|PEPTIDE6{F.P.G.V.G.[am]}$PEPTIDE1,PEPTIDE2,1:R3-1:R1|PEPTIDE1,PEPTIDE3,2:R3-1:R1|PEPTIDE1,PEPTIDE4,3:R3-1:R1|PEPTIDE1,PEPTIDE5,4:R3-1:R1|PEPTIDE1,PEPTIDE6,5:R3-1:R1$$$V2.0”: the step yield amounted to 13%.

In turn, “PEPTIDE1{E.E.E.E.E.E.F.P.G.V.G.[am]}|PEPTIDE2{F.P.G.V.G.[am]}|PEPTIDE3{F.P.G.V.G.[am]}|PEPTIDE4{F.P.G.V.G.[am]}|PEPTIDE5{F.P.G.V.G.[am]}|PEPTIDE6{F.P.G.V.G.[am]}|PEPTIDE7{F.P.G.V.G.[am]}$PEPTIDE1,PEPTIDE2,1:R3-1:R1|PEPTIDE1,PEPTIDE3,2:R3-1:R1|PEPTIDE1,PEPTIDE4,3:R3-1:R1|PEPTIDE1,PEPTIDE5,4:R3-1:R1|PEPTIDE1,PEPTIDE6,5:R3-1:R1|PEPTIDE1,PEPTIDE7,6:R3-1:R1$$$V2.0” gave a step yield of 37%.

Substance “PEPTIDE1{E.E.E.E.E.F.P.G.V.G.[am]}|PEPTIDE2{F.P.G.V.G.[am]}|PEPTIDE3{F.P.G.V.G.[am]}|PEPTIDE4{F.P.G.V.G.[am]}|PEPTIDE5{F.P.G.V.G.[am]}|PEPTIDE6{F.P.G.V.G.[am]}$PEPTIDE1,PEPTIDE2,1:R3-1:R1|PEPTIDE1,PEPTIDE3,2:R3-1:R1|PEPTIDE1,PEPTIDE4,3:R3-1:R1|PEPTIDE1,PEPTIDE5,4:R3-1:R1|PEPTIDE1,PEPTIDE6,5:R3-1:R1$$$V2.0” yielded a step yield of 58%.

For “PEPTIDE1{[gGlu].[gGlu].[gGlu].[gGlu].[gGlu].[gGlu].F.P.G.V.G.[am]}|PEPTIDE2{F.P.G.V.G.[am]}|PEPTIDE3{F.P.G.V.G.[am]}|PEPTIDE4{F.P.G.V.G.[am]}|PEPTIDE5{F.P.G.V.G.[am]}|PEPTIDE6{F.P.G.V.G.[am]}|PEPTIDE7{F.P.G.V.G.[am]}$PEPTIDE1,PEPTIDE2,1:R3-1:R1|PEPTIDE1,PEPTIDE3,2:R3-1:R1|PEPTIDE1,PEPTIDE4,3:R3-1:R1|PEPTIDE1,PEPTIDE5,4:R3-1:R1|PEPTIDE1,PEPTIDE6,5:R3-1:R1|PEPTIDE1,PEPTIDE7,6:R3-1:R1$$$V2.0”, the step yield stood at 8%.

Regarding “PEPTIDE1{E.E.E.E.F.P.G.V.G.[am]}|PEPTIDE2{F.P.G.V.G.[am]}|PEPTIDE3{F.P.G.V.G.[am]}|PEPTIDE4{F.P.G.V.G.[am]}|PEPTIDE5{F.P.G.V.G.[am]}$PEPTIDE1,PEPTIDE2,1:R3-1:R1|PEPTIDE1,PEPTIDE3,2:R3-1:R1|PEPTIDE1,PEPTIDE4,3:R3-1:R1|PEPTIDE1,PEPTIDE5,4:R3-1:R1$$$V2.0”, the step yield is given as 57%.
